# Results: patent US20230322958A1 (Genentech, published 2023)
# These are yes or no findings as the source states them, for the method shown. Some entries that bind do so weakly or less than the wild type.
# T1: huNotch2-EGF6-10 (human, UniProt Q04721 219-418)
# T1 construct: also called human Notch2 EGF6-10
# T1 sequence: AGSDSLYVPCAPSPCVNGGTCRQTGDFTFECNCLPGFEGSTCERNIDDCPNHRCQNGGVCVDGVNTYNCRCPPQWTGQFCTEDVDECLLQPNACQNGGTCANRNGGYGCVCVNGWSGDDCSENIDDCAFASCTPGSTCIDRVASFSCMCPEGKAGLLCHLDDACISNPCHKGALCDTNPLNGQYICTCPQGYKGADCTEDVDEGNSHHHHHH
# Columns and labels:
# [1] = biological target: human Notch2 (construct not stated) (human) (UniProt Q04721); assay: array SPR imaging epitope binning; antibody amine-coupled to the chip, 50 nM human Notch2 injected, then second antibody at 10 µg/ml, 25 °C
# huNotch2-EGF6-10 = biological target: T1, huNotch2-EGF6-10; assay: SPR BIAcore
Binder,binding [1],binding (huNotch2-EGF6-10)
"rat.1B2 (rat/human chimeric anti-Notch2 antibody 1B2) (antibody, V domains shown, also called 1B2 Chimeric; chimeric 1B2) VH: EVKLVDYGGGLVQPGASLRLSCEVSGFTFSDFYMEWIRQAPGKGLEWIAASRNKANNFSIVYSASVKDRFTISRDTYKSILYLQMSTLKPEDTAVYYCSRDSGRWGLDAWGQGTSVIVSS VL: DIQMTQSPASLSASLGETVTIQCQTSEDIYSGLAWYHQKPGKSPQLLIYGASRLQDGVPSRFTGSGSGTQYSLKISSMQTEDEGVYFCQQGFKYPLTFGSGTKLEIK",binds,–
"rat.3107 (rat/human chimeric anti-Notch2 antibody 3107) (antibody, V domains shown) VH: QVQLQQSGAELAKSGSSVKISCKASGYTFSNYVIHWIKQTTGQAPEWTGYIIPGSGGTKFNEKFKGKATLTVDKSSTTAYMQLSSLTPVDTAVYYCARDGAGSFTYWGQGTLVTVSS VL: DVLMTQTPVSLPVSLGGQVSISCRSSQSLVHSDGNTYLHWFLQKPGQSPQLLIYRISNRFSGVPDRFSGSGSGTDFTLKISRVEPEDLGVYYCLQSTHFPDTFGGGTKVEIK",binds,–
"hu1B2.v4L7 (antibody, V domains shown) VH: EVQLVESGGGLVQPGGSLKLSCAVSGFTFSDFYMEWIRQASGKGLEWIAAQRNKANDFSIVYSASVKDRFTISRDTSKSTLYLQMNSLKTEDTAVYYCSRDGGRLALDAWGQGTLVTVSS VL: DIQMTQSPSSVSASVGDRVTITCQTSEDIYSGLAWYQQKPGKSPKLLIYGASRLQDGVPSRFSGSGSGTDYTLTISSLQPEDFATYYCQQGFKYPLTFGGGTKVEIK",–,binds
"hu1B2.v8L7 (antibody, V domains shown) VH: EVQLVESGGGLVQPGGSLKLSCAVSGFTFSDFYMEWIRQASGKGLEWIAAQRNKANDFSIVYSASVKDRFTISRDTSKSTLYLQMNSLKTEDTAVYYCSRDGGKLALDAWGQGTLVTVSS VL: DIQMTQSPSSVSASVGDRVTITCQTSEDIYSGLAWYQQKPGKSPKLLIYGASRLQDGVPSRFSGSGSGTDYTLTISSLQPEDFATYYCQQGFKYPLTFGGGTKVEIK",–,binds
"hu1B2.v9L7 (antibody, V domains shown) VH: EVQLVESGGGLVQPGGSLKLSCAVSGFTFSDFYMEWIRQASGKGLEWIAAQRNKANDFSIVYSASVKDRFTISRDTSKSTLYLQMNSLKTEDTAVYYCSRDGGKWGLDAWGQGTLVTVSS VL: DIQMTQSPSSVSASVGDRVTITCQTSEDIYSGLAWYQQKPGKSPKLLIYGASRLQDGVPSRFSGSGSGTDYTLTISSLQPEDFATYYCQQGFKYPLTFGGGTKVEIK",–,binds
